The values below come from PMC7819943, “Rice protein-binding microarrays: a tool to detect cis-acting elements near promoter regions in rice”.

The other results are listed elsewhere or left out.

In this assay the target is T1, OsSMF1 (Oryza sativa, UniProt Q6ZLB0 1-436).
T1 sequence: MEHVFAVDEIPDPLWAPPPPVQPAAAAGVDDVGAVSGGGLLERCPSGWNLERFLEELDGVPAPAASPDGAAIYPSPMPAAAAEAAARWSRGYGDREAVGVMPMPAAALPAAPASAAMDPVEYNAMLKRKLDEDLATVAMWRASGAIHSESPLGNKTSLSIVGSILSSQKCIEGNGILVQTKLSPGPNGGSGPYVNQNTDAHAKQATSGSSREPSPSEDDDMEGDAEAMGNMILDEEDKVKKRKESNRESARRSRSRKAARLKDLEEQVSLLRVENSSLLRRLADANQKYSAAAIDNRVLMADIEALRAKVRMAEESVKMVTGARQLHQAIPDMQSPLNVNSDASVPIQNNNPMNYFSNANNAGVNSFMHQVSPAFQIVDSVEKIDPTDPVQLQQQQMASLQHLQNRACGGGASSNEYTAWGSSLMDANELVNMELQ
The experiment in a line: protein-binding microarray (RPBM); PBS, 2% BSA, 51.3 ng/ul salmon testes DNA, 50 uM zinc acetate, 200 nM TF, 25 C, 1 h; high values mean tight binding. The note with it: protein: recombinant; tags: N-terminal polyhistidine and DsRed monomer fusion (pET32a); chain copies: 2; label: CyDye5-dUTP incorporated in the synthesized complementary strand; 3' TTTTT single-stranded linker to array surface; dsDNA, one strand shown. An outline of the steps: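 Transcription factors were each fused at the N-terminus to a polyhistidine tag plus DsRed and expressed in E. coli BL21-CodonPlus before Ni–NTA purification. Binding to a double-stranded custom Agilent array was carried out with 200 nM protein at 25 °C for 1 h in PBS, 2% BSA, salmon testes DNA and 50 µM zinc acetate. The binding signal is per-feature fluorescence intensity, in arbitrary units, on an Axon 4000B scanner.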
As to “TTATCGGATATTGAAATAGATTATTTGCTTCACTCTTCCACGGAGTCACCTAGTGCAG”, the binding signal was 3280 fluorescence intensity (a.u.). For “TTTTGCTGTGGTGGGAGTGGATTTGGAGGGCGTATCGGGGCGGAGTCACCTAGTGCAG”, the binding signal was 3980 fluorescence intensity (a.u.). Consider “TTCCCTCGGAAGCCTTAAAAGTTGAACTTGTGCACTACTACGGAGTCACCTAGTGCAG”, for which the binding signal was 19700 fluorescence intensity (a.u.). The result for “GATGGGCCCCACGTGTCATACATGCCCGCCTTACTTCGCGCGGAGTCACCTAGTGCAG” reads 13800 fluorescence intensity (a.u.); that for “GACGGGTTCTATGGGATGCCGTCATCGGTGAGCCATCCAGCGGAGTCACCTAGTGCAG”, 4690 fluorescence intensity (a.u.). As for “GGAGGAGTCGCGGACGCGATCCGTTTCGCCCGTGACGCGGCGGAGTCACCTAGTGCAG”, the binding signal was 9210 fluorescence intensity (a.u.). The result for “CGCACATCCATCCACGTCATCGATCCGCGCCGCGTGCCTTCGGAGTCACCTAGTGCAG” reads 28400 fluorescence intensity (a.u.); that for “GCAATTCAGTGAACCACGAAAGGTAGCCTGCCTTGGCTGCCGGAGTCACCTAGTGCAG”, 3200 fluorescence intensity (a.u.); that for “GAAAATACTTACTAGATTGCCACGCGTACGCCACGTAGGACGGAGTCACCTAGTGCAG”, 30700 fluorescence intensity (a.u.). “TAATTTTGAAGCCTGGTCCAGTCCACGCCACCAACGGACGCGGAGTCACCTAGTGCAG”: the binding signal was 3880 fluorescence intensity (a.u.). With “TGCTGCCTTGTACATGTCTCCAACAACAAGAAGAAAGTCACGGAGTCACCTAGTGCAG” the figure was 3240 fluorescence intensity (a.u.); with “ACACAGCCTAACTAACAAAACCGTTGACTCACCAATCGCCCGGAGTCACCTAGTGCAG”, 7900 fluorescence intensity (a.u.); with “GGAGTATTAGCTAGTCATCATTTGTTCTCTTCACCGACCGCGGAGTCACCTAGTGCAG”, 3390 fluorescence intensity (a.u.).

Take “GATTTACCGCCAAATATACAGAGAAGGAATGAGCCATGGACGGAGTCACCTAGTGCAG”: the binding signal was 25600 fluorescence intensity (a.u.). “ATGATCAACCAGCAGATGTGTTGTATTTGAGGTTCTGCTACGGAGTCACCTAGTGCAG”: the binding signal is 3730 fluorescence intensity (a.u.). With “ATTTCCCTTCCCTTTCTTTCTTTCTTTCTTTCTTTCTTTCCGGAGTCACCTAGTGCAG”, the binding signal was 3390 fluorescence intensity (a.u.).

Turning to “TAGGGTAGCAATTTAAACTGGCCCGTAACTTTTATGTAAGCGGAGTCACCTAGTGCAG”, the binding signal was 8730 fluorescence intensity (a.u.).

In the case of “TTATGTCCATCTATTCTTACGTGAAAGTAACCTAATGCATCGGAGTCACCTAGTGCAG”, the binding signal is 28700 fluorescence intensity (a.u.). Take “TCAGCTCAGAAATTCTTCTGCTATACTCACCCACTTGCCACGGAGTCACCTAGTGCAG”: the binding signal was 3450 fluorescence intensity (a.u.). As to “GGGCCAGTTTGCTCGTACAACTCACACACACTCATATCCACGGAGTCACCTAGTGCAG”, the binding signal is 3430 fluorescence intensity (a.u.). “CTACTACGTACCATTAGTCCAACACGTACGTACCACTGAGCGGAGTCACCTAGTGCAG”: the binding signal was 4460 fluorescence intensity (a.u.). Consider “ACCTCTGGTAGCAGCAGCAGCTCGCACGCAGCTCATCGTGCGGAGTCACCTAGTGCAG”, for which the binding signal was 40700 fluorescence intensity (a.u.). For the sequence “TGGCTCCGCCACGTCCTCGTCGCCTGGAACTCGCTCGTCTCGGAGTCACCTAGTGCAG”, the binding signal was 12300 fluorescence intensity (a.u.). Consider “GATTTCATTCACCAACGCATGATTTCGTTCCCCACCGCAGCGGAGTCACCTAGTGCAG”, for which the binding signal was 4220 fluorescence intensity (a.u.). For the sequence “CTATCATAGCACGTGGCCGCATCTCCTGTTGCCTTTCCTACGGAGTCACCTAGTGCAG”, the binding signal is 4810 fluorescence intensity (a.u.).

In the case of “CTAAGTATGGCGTTATACGATGTGGAGGCATTCATGCGAGCGGAGTCACCTAGTGCAG”, the binding signal is 3280 fluorescence intensity (a.u.). As for “CCGCCGCAGCCGCAGCCGGCCAAGCTGGGCGTCGGCGACACGGAGTCACCTAGTGCAG”, the binding signal was 39700 fluorescence intensity (a.u.).

With “GTCAAAGATGCCACGTAGAATAAAACCTCCTACGAAACCCCGGAGTCACCTAGTGCAG”, the binding signal is 4160 fluorescence intensity (a.u.).

For the sequence “CAGCATCGTCTGAAGAAGCACAGGAGCAGGGGAGATATGGCGGAGTCACCTAGTGCAG”, the binding signal is 3380 fluorescence intensity (a.u.). Take “ATCCTATGAAATTTCTATATAATGACTCATTGCATGTAGACGGAGTCACCTAGTGCAG”: the binding signal was 4680 fluorescence intensity (a.u.). On to “ACACACTCCTGGAAATTACTTATTGGCTTAGATCGCTGACCGGAGTCACCTAGTGCAG”, for which the binding signal was 4840 fluorescence intensity (a.u.). The result for “TTGGCATTTGGCTCGGATGGCGCCACGTAGCATTTGCAGGCGGAGTCACCTAGTGCAG” reads 7940 fluorescence intensity (a.u.); that for “TCGCAGCGCCAGTGCAGGCGGGCACGTTGGGTGTGTAGCCCGGAGTCACCTAGTGCAG”, 4290 fluorescence intensity (a.u.); that for “GACCATAAGTGTCCACGTATGCAAAACTCGACCTCCGTTTCGGAGTCACCTAGTGCAG”, 13800 fluorescence intensity (a.u.).

In the case of “TCGTAGTATCACACACTTCACACCACGTCACCACGCCCTCCGGAGTCACCTAGTGCAG”, the binding signal is 20200 fluorescence intensity (a.u.). Turning to “GGTAACTGACGAGATTTGCATCCTTATTTCTAGCTAGTCCCGGAGTCACCTAGTGCAG”, the binding signal was 3410 fluorescence intensity (a.u.).

With “TGCCCCGCCTGTCACCCACTCCGGCTGCCGCTCCACCGCTCGGAGTCACCTAGTGCAG”, the binding signal was 3160 fluorescence intensity (a.u.).
